Assay results reported in the supplement of paper PMC8728848.
The list shows a part of the results.

What was measured:
Test in all cases: glycan array binding signal (z-score within array); higher = stronger binding
Details in all cases: glycan notation: IUPAC condensed, linker removed
[1] = molecular target: Fuc(a1-2)Gal(b1-4)GlcNAc(b1-3)Gal(b1-4)GlcNAc(b1-3)Gal(b1-4)GlcNAc
Summary of the method: (§1)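 Glycan array binding is given as a within-array Z-score, which can be read as non-binding when negative. The arrays, 3228 of them, came from the Consortium for Functional Glycomics database and were retained only where the protein sequence was available. Z-scores were averaged across arrays of the same protein sequence at different concentrations or buffers and across linkers.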

[2] = molecular target: Fuc(a1-2)Gal(b1-4)GlcNAc(b1-3)GalNAc
Summary of the method: as §1

[3] = molecular target: Fuc(a1-2)Gal(b1-4)GlcNAc(b1-3)[Fuc(a1-2)Gal(b1-4)GlcNAc(b1-6)]GalNAc
Summary of the method: as §1

[4] = molecular target: Fuc(a1-2)Gal(b1-4)GlcNAc(b1-3)[Fuc(a1-3)[Gal(b1-4)]GlcNAc(b1-6)]Gal(b1-4)Glc
Summary of the method: as §1

[5] = molecular target: Fuc(a1-2)Gal(b1-4)GlcNAc(b1-6)GalNAc
Summary of the method: as §1

[6] = molecular target: Fuc(a1-2)Gal(b1-4)GlcNAc6S
Summary of the method: as §1

[7] = molecular target: Fuc(a1-2)Gal(b1-4)[Fuc(a1-3)]GlcNAc
Summary of the method: as §1

[8] = molecular target: Fuc(a1-2)Gal(b1-4)[Fuc(a1-3)]GlcNAc(b1-2)Man(a1-3)[Fuc(a1-2)Gal(b1-4)[Fuc(a1-3)]GlcNAc(b1-2)Man(a1-6)]Man(b1-4)GlcNAc(b1-4)[Fuc(a1-6)]GlcNAc
Summary of the method: as §1

[9] = molecular target: Fuc(a1-2)Gal(b1-4)[Fuc(a1-3)]GlcNAc(b1-2)[Fuc(a1-2)Gal(b1-4)[Fuc(a1-3)]GlcNAc(b1-4)]Man(a1-3)[Fuc(a1-2)Gal(b1-4)[Fuc(a1-3)]GlcNAc(b1-2)Man(a1-6)]Man(b1-4)GlcNAc(b1-4)GlcNAc
Summary of the method: as §1

[10] = molecular target: Fuc(a1-2)Gal(b1-4)[Fuc(a1-3)]GlcNAc(b1-3)Gal(b1-4)[Fuc(a1-3)]GlcNAc
Summary of the method: as §1

[11] = molecular target: Fuc(a1-2)Gal(b1-4)[Fuc(a1-3)]GlcNAc(b1-3)Gal(b1-4)[Fuc(a1-3)]GlcNAc(b1-3)Gal(b1-4)[Fuc(a1-3)]GlcNAc
Summary of the method: as §1

[12] = molecular target: Fuc(a1-2)Gal(b1-4)[Fuc(a1-3)]GlcNAc(b1-3)GalNAc
Summary of the method: as §1

[13] = molecular target: Fuc(a1-2)Gal(b1-4)[Fuc(a1-3)]GlcNAc(b1-3)[Neu5Ac(a2-6)Gal(b1-4)GlcNAc(b1-6)]Gal(b1-4)Glc
Summary of the method: as §1

[14] = molecular target: Fuc(a1-2)Gal3S(b1-4)GlcNAc
Summary of the method: as §1

[15] = molecular target: Fuc(a1-2)Gal6S(b1-3)GlcNAc
Summary of the method: as §1

[16] = molecular target: Fuc(a1-2)Gal6S(b1-3)GlcNAc6S
Summary of the method: as §1

Fuc(a1-2)Gal6S(b1-4)Glc = molecular target: Fuc(a1-2)Gal6S(b1-4)Glc
Summary of the method: as §1

[17] = molecular target: Fuc(a1-2)Gal6S(b1-4)Glc6S
Summary of the method: as §1

Fuc(a1-2)[Gal(a1-3)]Gal = molecular target: Fuc(a1-2)[Gal(a1-3)]Gal
Summary of the method: as §1

[18] = molecular target: Fuc(a1-2)[Gal(a1-3)]Gal(b1-3)GalNAc
Summary of the method: as §1

[19] = molecular target: Fuc(a1-2)[Gal(a1-3)]Gal(b1-3)GalNAc(b1-3)Gal(a1-4)Gal(b1-4)Glc
Summary of the method: as §1

[20] = molecular target: Fuc(a1-2)[Gal(a1-3)]Gal(b1-3)GlcNAc
Summary of the method: as §1

[21] = molecular target: Fuc(a1-2)[Gal(a1-3)]Gal(b1-3)GlcNAc(b1-2)Man(a1-3)[Fuc(a1-2)[Gal(a1-3)]Gal(b1-3)GlcNAc(b1-2)Man(a1-6)]Man(b1-4)GlcNAc(b1-4)GlcNAc
Summary of the method: as §1

[22] = molecular target: Fuc(a1-2)[Gal(a1-3)]Gal(b1-3)GlcNAc(b1-2)Man(a1-3)[Fuc(a1-2)[Gal(a1-3)]Gal(b1-3)GlcNAc(b1-2)Man(a1-6)]Man(b1-4)GlcNAc(b1-4)[Fuc(a1-6)]GlcNAc
Summary of the method: as §1

[23] = molecular target: Fuc(a1-2)[Gal(a1-3)]Gal(b1-3)GlcNAc(b1-3)GalNAc
Summary of the method: as §1

[24] = molecular target: Fuc(a1-2)[Gal(a1-3)]Gal(b1-3)GlcNAc(b1-6)GalNAc
Summary of the method: as §1

[25] = molecular target: Fuc(a1-2)[Gal(a1-3)]Gal(b1-4)Glc
Summary of the method: as §1

[26] = molecular target: Fuc(a1-2)[Gal(a1-3)]Gal(b1-4)GlcNAc
Summary of the method: as §1

[27] = molecular target: Fuc(a1-2)[Gal(a1-3)]Gal(b1-4)GlcNAc(b1-2)Man
Summary of the method: as §1

[28] = molecular target: Fuc(a1-2)[Gal(a1-3)]Gal(b1-4)GlcNAc(b1-2)Man(a1-3)[Fuc(a1-2)[Gal(a1-3)]Gal(b1-4)GlcNAc(b1-2)Man(a1-6)]Man(b1-4)GlcNAc(b1-4)GlcNAc
Summary of the method: as §1

[29] = molecular target: Fuc(a1-2)[Gal(a1-3)]Gal(b1-4)GlcNAc(b1-2)Man(a1-3)[Fuc(a1-2)[Gal(a1-3)]Gal(b1-4)GlcNAc(b1-2)Man(a1-6)]Man(b1-4)GlcNAc(b1-4)[Fuc(a1-6)]GlcNAc
Summary of the method: as §1

[30] = molecular target: Fuc(a1-2)[Gal(a1-3)]Gal(b1-4)GlcNAc(b1-3)GalNAc
Summary of the method: as §1

[31] = molecular target: Fuc(a1-2)[Gal(a1-3)]Gal(b1-4)GlcNAc(b1-3)[Fuc(a1-2)[Gal(a1-3)]Gal(b1-4)GlcNAc(b1-6)]GalNAc
Summary of the method: as §1

[32] = molecular target: Fuc(a1-2)[Gal(a1-3)]Gal(b1-4)GlcNAc(b1-6)GalNAc
Summary of the method: as §1

[33] = molecular target: Fuc(a1-2)[Gal(a1-3)]Gal(b1-4)[Fuc(a1-3)]Glc
Summary of the method: as §1

[34] = molecular target: Fuc(a1-2)[Gal(a1-3)]Gal(b1-4)[Fuc(a1-3)]GlcNAc
Summary of the method: as §1

[35] = molecular target: Fuc(a1-2)[Gal(a1-3)]Gal(b1-4)[Fuc(a1-3)]GlcNAc(b1-3)GalNAc
Summary of the method: as §1

B1: GS13599A-bth-520-23-520 (Bacteroides thetaiotaomicron) (protein)
chain: SEDTMDRINKDHDHTTSVASRFILADVITSTAFSNASGDINTYASSYIEYEVGVDNQLYYAEVRENEPSSSSTFNNSWNGIYSSLKNARIIIDQCGEGGRDHGNDVTRGMAEVMAAYNCALIADFFGDAPCSQAALVDEKGSPVYMTPKMDTQQEIYTQIISYLDDAIANLQKEDLADVTEQDFLYAGDADKWLKFAYGLKARYTMRLINRSSNKSADYEKVLDYVSKSFTSADDQAAFDIYDSNNINPFYGFYNSRAGFGASTSLGTKLLAYNDPRANRAFFTPIVDKKRSQVAANDPSLVPAPNGSPDQSTSKYGISAFVYAKTAPTLLMSYHELMFLKAEALCRLNRDAEDALKEAVVAGLLNAENSISIAIKELGSGLNTNSSEVITETSAGKYFDDVVKAKYAANPLQETMIQKYLAMWGASGEATETYNDFRRMKGLNENFITLTNPNNSSKFPLRYPYGNSDTAANPEVKAAYGNGDYVYSEPVWWAGGSR
In the case of B1, the “glycan array binding signal (z-score)” value [1] is reported as -0.643, the “glycan array binding signal (z-score)” value [2] is reported as -0.631 and the “glycan array binding signal (z-score)” value [3] is reported as -1.1. The “glycan array binding signal (z-score)” value [4] was -0.452, the “glycan array binding signal (z-score)” value [5] was 1.22 and the “glycan array binding signal (z-score)” value [6] was -0.78. The “glycan array binding signal (z-score)” value [7] was 0.206, the “glycan array binding signal (z-score)” value [8] was 0.272 and the “glycan array binding signal (z-score)” value [9] was 1.25. For the same binder, the “glycan array binding signal (z-score)” value [10] was -0.005, the “glycan array binding signal (z-score)” value [11] was -0.474 and the “glycan array binding signal (z-score)” value [12] was 1.32. For the same binder, the “glycan array binding signal (z-score)” value [13] was -0.281, the “glycan array binding signal (z-score)” value [14] was 0.058 and the “glycan array binding signal (z-score)” value [15] was -0.741. For the same binder, the “glycan array binding signal (z-score)” value [16] was 0.036, the “glycan array binding signal (z-score)” value (Fuc(a1-2)Gal6S(b1-4)Glc) was -0.385 and the “glycan array binding signal (z-score)” value [17] was -0.124. For the same binder, the “glycan array binding signal (z-score)” value (Fuc(a1-2)[Gal(a1-3)]Gal) was 0.757, the “glycan array binding signal (z-score)” value [18] was 0.632 and the “glycan array binding signal (z-score)” value [19] was -0.375. The “glycan array binding signal (z-score)” value [20] was -0.4, the “glycan array binding signal (z-score)” value [21] was -0.466 and the “glycan array binding signal (z-score)” value [22] was 0.995. The “glycan array binding signal (z-score)” value [23] was -0.891, the “glycan array binding signal (z-score)” value [24] was -0.055 and the “glycan array binding signal (z-score)” value [25] was -0.349. For the same binder, the “glycan array binding signal (z-score)” value [26] was -1.5, the “glycan array binding signal (z-score)” value [27] was -0.234 and the “glycan array binding signal (z-score)” value [28] was 2.32. For the same binder, the “glycan array binding signal (z-score)” value [29] was -0.141, the “glycan array binding signal (z-score)” value [30] was 0.566 and the “glycan array binding signal (z-score)” value [31] was -0.073. The “glycan array binding signal (z-score)” value [32] was -1.3, the “glycan array binding signal (z-score)” value [33] was -0.724 and the “glycan array binding signal (z-score)” value [34] was -0.465. The “glycan array binding signal (z-score)” value [35] was -1.29.
